Some of the results follow. Repeats are few or missing, and single values can be far off.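 Cells were imaged in 1,536-well plates, and nuclei stained with an antibody against cleaved PARP were counted against all DNA-stained nuclei to give the apoptosis fraction. Screening doses were chosen to leave most cells alive, and resting and induced cleaved-PARP levels differ strongly between cell lines.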
The compounds below were run on A2058 (assay: cleaved PARP positive nuclei fraction relative to DMSO control; melanoma cells; higher = more apoptosis). Conditions: library dose: low library concentration; 72 h.
In the case of `C[C@]1(O)C[C@@H](c2nc(-c3ccc4ccc(-c5ccccc5)nc4c3)c3c(N)nccn32)C1` + N.N.[Cl][Pt][Cl] [cisplatin] (first compound 0.4 µM, partner dose 1.6 µM), the “cleaved PARP positive nuclei fraction” value was 97.5%.
For `C[C@]12O[C@H](C[C@]1(O)CO)n1c3ccccc3c3c4c(c5c6ccccc6n2c5c31)CNC4=O` [Lestaurtinib] + CC(C)C[C@H](NC(=O)[C@H](Cc1ccccc1)NC(=O)c1cnccn1)B(O)O [Bortezomib] (first compound 0.004 µM, partner dose 0.001 µM), the “cleaved PARP positive nuclei fraction” value was 57.8%.
For `COc1ccc(C2=N[C@@H](c3ccc(Cl)cc3)[C@@H](c3ccc(Cl)cc3)N2C(=O)N2CCNC(=O)C2)c(OC(C)C)c1` [Nutlin-3] + C[C@]12O[C@H](C[C@]1(O)CO)n1c3ccccc3c3c4c(c5c6ccccc6n2c5c31)CNC4=O [Lestaurtinib] (first compound 0.1 µM, partner dose 0.004 µM), the “cleaved PARP positive nuclei fraction” value was 53.2%.
`C=CCNC1=C2C[C@@H](C)C[C@H](OC)[C@H](O)[C@@H](C)/C=C(\C)[C@H](OC(N)=O)[C@@H](OC)/C=C\C=C(/C)C(=O)NC(=CC1=O)C2=O` [Tanespimycin] + C[As](C)SC[C@H](NC(=O)CC[C@H](N)C(=O)O)C(=O)NCC(=O)O [Darinaparsin] (first compound 0.002 µM, partner dose 0.4 µM) was tested, and the “cleaved PARP positive nuclei fraction” value was 165%.
For `COc1ccc(C2=N[C@@H](c3ccc(Cl)cc3)[C@@H](c3ccc(Cl)cc3)N2C(=O)N2CCNC(=O)C2)c(OC(C)C)c1` [Nutlin-3] + C[As](C)SC[C@H](NC(=O)CC[C@H](N)C(=O)O)C(=O)NCC(=O)O [Darinaparsin] (first compound 0.1 µM, partner dose 0.4 µM), the “cleaved PARP positive nuclei fraction” value was 265%.
For `Cn1cc(C2=C(c3cn(C4CCN(Cc5ccccn5)CC4)c4ccccc34)C(=O)NC2=O)c2ccccc21` [Enzastaurin] + CNC(=O)c1cc(Oc2ccc(NC(=O)Nc3ccc(Cl)c(C(F)(F)F)c3)cc2)ccn1 [sorafenib] (first compound 0.8 µM, partner dose 0.4 µM), the “cleaved PARP positive nuclei fraction” value was 96.3%.
With `C[C@]12O[C@H](C[C@]1(O)CO)n1c3ccccc3c3c4c(c5c6ccccc6n2c5c31)CNC4=O` [Lestaurtinib] + CO[C@H]1C[C@@H]2CC[C@@H](C)[C@@](O)(O2)C(=O)C(=O)N2CCCC[C@H]2C(=O)O[C@H]([C@H](C)C[C@@H]2CC[C@@H](OCCO)[C@H](OC)C2)CC(=O)[C@H](C)/C=C(\C)[C@@H](O)[C@@H](OC)C(=O)[C@H](C)C[C@H](C)/C=C/C=C/C=C/1C [everolimus] (first compound 0.004 µM, partner dose 0.02 µM) the “cleaved PARP positive nuclei fraction” value was 217%.
For `N.N.[Cl][Pt][Cl]` [cisplatin] + Cn1c(Nc2ccc(C(F)(F)F)cc2)nc2cc(Oc3ccnc(-c4ncc(C(F)(F)F)[nH]4)c3)ccc21 [CHIR265] (first compound 1.6 µM, partner dose 0.08 µM), the “cleaved PARP positive nuclei fraction” value was 168%.
In the case of `C[C@]12O[C@H](C[C@]1(O)CO)n1c3ccccc3c3c4c(c5c6ccccc6n2c5c31)CNC4=O` [Lestaurtinib] + C=C(c1ccc(C(=O)O)cc1)c1cc2c(cc1C)C(C)(C)CCC2(C)C [Bexarotene] (first compound 0.004 µM, partner dose 2 µM), the “cleaved PARP positive nuclei fraction” value was 143%.
`N.N.[Cl][Pt][Cl]` [cisplatin] + CO[C@H]1C[C@@H]2CC[C@@H](C)[C@@](O)(O2)C(=O)C(=O)N2CCCC[C@H]2C(=O)O[C@H]([C@H](C)C[C@@H]2CC[C@@H](OCCO)[C@H](OC)C2)CC(=O)[C@H](C)/C=C(\C)[C@@H](O)[C@@H](OC)C(=O)[C@H](C)C[C@H](C)/C=C/C=C/C=C/1C [everolimus] (first compound 1.6 µM, partner dose 0.02 µM) was tested, and the “cleaved PARP positive nuclei fraction” value was 68%.
For `COc1ccc(C2=N[C@@H](c3ccc(Cl)cc3)[C@@H](c3ccc(Cl)cc3)N2C(=O)N2CCNC(=O)C2)c(OC(C)C)c1` [Nutlin-3] + N.N.[Cl][Pt][Cl] [cisplatin] (first compound 0.1 µM, partner dose 1.6 µM), the “cleaved PARP positive nuclei fraction” value was 73.6%.
With `Cn1sc(=O)n(Cc2ccccc2)c1=O` + N.N.[Cl][Pt][Cl] [cisplatin] (first compound 0.4 µM, partner dose 1.6 µM) the “cleaved PARP positive nuclei fraction” value was 140%.
For `Cn1cc(C2=C(c3cn(C4CCN(Cc5ccccn5)CC4)c4ccccc34)C(=O)NC2=O)c2ccccc21` [Enzastaurin] + CN(c1ncccc1CNc1nc(Nc2ccc3c(c2)CC(=O)N3)ncc1C(F)(F)F)S(C)(=O)=O [PF562271] (first compound 0.8 µM, partner dose 0.08 µM), the “cleaved PARP positive nuclei fraction” value was 147%.
In the case of `C[C@]12O[C@H](C[C@]1(O)CO)n1c3ccccc3c3c4c(c5c6ccccc6n2c5c31)CNC4=O` [Lestaurtinib] + CCCS(=O)(=O)Nc1ccc(F)c(C(=O)c2c[nH]c3ncc(Cl)cc23)c1F [PLX4720] (first compound 0.004 µM, partner dose 0.08 µM), the “cleaved PARP positive nuclei fraction” value was 126%.
With `C[C@]12O[C@H](C[C@]1(O)CO)n1c3ccccc3c3c4c(c5c6ccccc6n2c5c31)CNC4=O` [Lestaurtinib] + COc1ccc(Cl)c(Nc2nc3ccccc3nc2NS(=O)(=O)c2cccc(NC(=O)C(C)(C)N)c2)c1 [XL147] (first compound 0.004 µM, partner dose 0.8 µM) the “cleaved PARP positive nuclei fraction” value was 90%.
`N.N.[Cl][Pt][Cl]` [cisplatin] + Cn1nnc2c(C(N)=O)ncn2c1=O [temozolomide] (first compound 1.6 µM, partner dose 2 µM) was tested, and the “cleaved PARP positive nuclei fraction” value was 82.7%.
In the case of `Cn1cc(C2=C(c3cn(C4CCN(Cc5ccccn5)CC4)c4ccccc34)C(=O)NC2=O)c2ccccc21` [Enzastaurin] + C=CCNC1=C2C[C@@H](C)C[C@H](OC)[C@H](O)[C@@H](C)/C=C(\C)[C@H](OC(N)=O)[C@@H](OC)/C=C\C=C(/C)C(=O)NC(=CC1=O)C2=O [Tanespimycin] (first compound 0.8 µM, partner dose 0.002 µM), the “cleaved PARP positive nuclei fraction” value was 206%.
With `CS(=O)(=O)c1ccc(C(=O)Nc2ccc(Cl)c(-c3ccccn3)c2)c(Cl)c1` [vismodegib] + C[As](C)SC[C@H](NC(=O)CC[C@H](N)C(=O)O)C(=O)NCC(=O)O [Darinaparsin] (first compound 1 µM, partner dose 0.4 µM) the “cleaved PARP positive nuclei fraction” value was 88.8%.
For `CS(=O)(=O)c1ccc(C(=O)Nc2ccc(Cl)c(-c3ccccn3)c2)c(Cl)c1` [vismodegib] + N.N.[Cl][Pt][Cl] [cisplatin] (first compound 1 µM, partner dose 1.6 µM), the “cleaved PARP positive nuclei fraction” value was 63.1%.
For `CCCS(=O)(=O)Nc1ccc(F)c(C(=O)c2c[nH]c3ncc(Cl)cc23)c1F` + C[As](C)SC[C@H](NC(=O)CC[C@H](N)C(=O)O)C(=O)NCC(=O)O [Darinaparsin] (first compound 0.08 µM, partner dose 0.4 µM), the “cleaved PARP positive nuclei fraction” value was 127%.
`C[C@]12O[C@H](C[C@]1(O)CO)n1c3ccccc3c3c4c(c5c6ccccc6n2c5c31)CNC4=O` [Lestaurtinib] + C=CCNC1=C2C[C@@H](C)C[C@H](OC)[C@H](O)[C@@H](C)/C=C(\C)[C@H](OC(N)=O)[C@@H](OC)/C=C\C=C(/C)C(=O)NC(=CC1=O)C2=O [Tanespimycin] (first compound 0.004 µM, partner dose 0.002 µM) was tested, and the “cleaved PARP positive nuclei fraction” value was 211%.
For `C[C@]12O[C@H](C[C@]1(O)CO)n1c3ccccc3c3c4c(c5c6ccccc6n2c5c31)CNC4=O` [Lestaurtinib] + O=C(O)[C@@H]1[O][Sb](=[O])([O][Sb]2(=[O])[O][C@H]([C@H](O)CO)[C@H](O)[C@H](C(=O)O)[O]2)[O][C@H]([C@H](O)CO)[C@@H]1O [stibogluconate] (first compound 0.004 µM, partner dose 2 µM), the “cleaved PARP positive nuclei fraction” value was 283%.
In the case of `Cn1cc(C2=C(c3cn(C4CCN(Cc5ccccn5)CC4)c4ccccc34)C(=O)NC2=O)c2ccccc21` [Enzastaurin] + C=C(c1ccc(C(=O)O)cc1)c1cc2c(cc1C)C(C)(C)CCC2(C)C [Bexarotene] (first compound 0.8 µM, partner dose 2 µM), the “cleaved PARP positive nuclei fraction” value was 81.9%.

From the supplement of paper PMC4604168 (melanoma cell lines)
